# From PMC7862700
# The chains behind the UniProt entries cited, without tags or fusion partners. Where a name states a change or a piece, a line headed by the entry shows the natural chain unless it says otherwise.
# UniProt Q01892: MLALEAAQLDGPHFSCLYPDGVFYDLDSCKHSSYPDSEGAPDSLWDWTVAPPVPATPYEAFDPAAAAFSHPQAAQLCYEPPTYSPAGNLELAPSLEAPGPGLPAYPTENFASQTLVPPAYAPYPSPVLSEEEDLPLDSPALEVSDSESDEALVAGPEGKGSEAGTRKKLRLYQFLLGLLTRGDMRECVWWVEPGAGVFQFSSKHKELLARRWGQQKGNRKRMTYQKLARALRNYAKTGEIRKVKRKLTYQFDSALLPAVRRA
# UniProt P41161: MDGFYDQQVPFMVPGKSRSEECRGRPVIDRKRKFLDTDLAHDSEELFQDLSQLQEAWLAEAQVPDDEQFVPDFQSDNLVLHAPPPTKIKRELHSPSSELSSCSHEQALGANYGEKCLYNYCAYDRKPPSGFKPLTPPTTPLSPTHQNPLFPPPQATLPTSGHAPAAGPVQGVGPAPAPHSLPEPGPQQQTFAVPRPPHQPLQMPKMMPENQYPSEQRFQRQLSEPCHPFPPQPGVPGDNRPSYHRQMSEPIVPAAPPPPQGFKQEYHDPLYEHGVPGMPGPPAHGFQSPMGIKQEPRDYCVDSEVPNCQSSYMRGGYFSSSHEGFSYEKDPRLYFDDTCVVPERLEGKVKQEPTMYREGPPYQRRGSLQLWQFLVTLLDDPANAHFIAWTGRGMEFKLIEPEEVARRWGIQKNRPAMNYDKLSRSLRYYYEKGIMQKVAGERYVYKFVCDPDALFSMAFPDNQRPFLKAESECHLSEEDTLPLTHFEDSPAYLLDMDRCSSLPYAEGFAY
# UniProt Q99607: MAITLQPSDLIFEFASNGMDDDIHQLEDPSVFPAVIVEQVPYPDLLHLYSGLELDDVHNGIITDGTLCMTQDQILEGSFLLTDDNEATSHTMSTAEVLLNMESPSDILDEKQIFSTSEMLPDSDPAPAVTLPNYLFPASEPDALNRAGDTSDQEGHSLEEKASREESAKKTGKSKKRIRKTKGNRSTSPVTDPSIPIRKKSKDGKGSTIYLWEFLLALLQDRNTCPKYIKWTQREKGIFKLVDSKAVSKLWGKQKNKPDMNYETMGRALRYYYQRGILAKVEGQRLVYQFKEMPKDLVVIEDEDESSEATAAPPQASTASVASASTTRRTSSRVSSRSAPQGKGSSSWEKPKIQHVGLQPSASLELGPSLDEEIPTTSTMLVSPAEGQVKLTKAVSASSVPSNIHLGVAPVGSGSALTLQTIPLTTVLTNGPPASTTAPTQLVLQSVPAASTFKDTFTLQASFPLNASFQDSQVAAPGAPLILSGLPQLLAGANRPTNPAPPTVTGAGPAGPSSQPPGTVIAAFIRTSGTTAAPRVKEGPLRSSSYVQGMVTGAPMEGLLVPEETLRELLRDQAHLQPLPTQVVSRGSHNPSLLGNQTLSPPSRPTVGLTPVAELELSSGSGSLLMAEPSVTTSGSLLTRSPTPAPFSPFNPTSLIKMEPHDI
# The entries are a selection whose mix differs from that of the whole data set. At the low end of the ranking, values are background and their order means little.
# Legend:
# Experiment in all cases: DAPPL (digital affinity profiling via proximity ligation, sequencing)
# Settings in all cases: 10 mM Tris-HCl pH 7.5, 50 mM NaCl, 1 mM DTT, 4% glycerol, room temperature, 30 min; GST-TFs on glutathione beads, 16-mer random dsDNA library, 0.1% …; high values mean tight binding; double strand, one strand shown; scale: fold enrichment (6-mer frequency, TF over GST control)
# FLI1 = target: T1, FLI1 (UniProt Q01543)
# T1 sequence: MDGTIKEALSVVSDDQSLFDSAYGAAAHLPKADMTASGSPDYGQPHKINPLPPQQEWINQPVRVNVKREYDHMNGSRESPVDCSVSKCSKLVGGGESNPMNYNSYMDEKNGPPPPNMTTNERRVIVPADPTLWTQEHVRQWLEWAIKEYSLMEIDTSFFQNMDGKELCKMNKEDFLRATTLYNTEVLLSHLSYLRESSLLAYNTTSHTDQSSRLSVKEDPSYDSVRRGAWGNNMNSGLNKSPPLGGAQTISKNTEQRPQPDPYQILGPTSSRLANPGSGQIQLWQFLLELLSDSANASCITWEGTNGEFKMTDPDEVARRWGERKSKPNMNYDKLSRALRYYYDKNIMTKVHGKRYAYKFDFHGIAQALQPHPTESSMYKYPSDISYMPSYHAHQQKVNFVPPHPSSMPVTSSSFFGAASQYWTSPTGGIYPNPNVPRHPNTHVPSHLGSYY
# EHF = target: T2, EHF (UniProt Q9NZC4)
# T2 sequence: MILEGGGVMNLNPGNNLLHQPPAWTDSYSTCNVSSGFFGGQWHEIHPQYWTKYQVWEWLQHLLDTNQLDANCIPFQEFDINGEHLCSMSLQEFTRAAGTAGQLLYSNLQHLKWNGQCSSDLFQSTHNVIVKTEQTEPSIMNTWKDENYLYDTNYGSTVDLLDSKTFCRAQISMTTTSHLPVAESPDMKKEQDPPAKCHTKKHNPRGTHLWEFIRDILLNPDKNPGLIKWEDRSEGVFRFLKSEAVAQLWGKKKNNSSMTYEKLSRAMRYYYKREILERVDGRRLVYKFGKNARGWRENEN
# SPIB = SPIB (UniProt Q01892)
# ETV5 = ETV5 (UniProt P41161)
# ELF4 = ELF4 (UniProt Q99607)
# ETV2 = target: T3, ETV2 (UniProt O00321)
# T3 sequence: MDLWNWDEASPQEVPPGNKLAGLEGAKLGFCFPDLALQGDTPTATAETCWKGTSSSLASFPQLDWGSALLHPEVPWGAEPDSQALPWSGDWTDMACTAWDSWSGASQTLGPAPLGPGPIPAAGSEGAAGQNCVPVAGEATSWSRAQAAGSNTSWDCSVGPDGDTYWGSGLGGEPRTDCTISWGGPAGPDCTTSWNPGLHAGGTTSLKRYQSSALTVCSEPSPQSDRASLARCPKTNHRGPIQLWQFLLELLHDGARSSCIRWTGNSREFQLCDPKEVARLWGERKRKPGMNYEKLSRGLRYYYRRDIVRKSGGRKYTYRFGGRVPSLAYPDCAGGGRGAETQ
# ETV3L = target: T4, ETV3L (UniProt Q6ZN32)
# T4 sequence: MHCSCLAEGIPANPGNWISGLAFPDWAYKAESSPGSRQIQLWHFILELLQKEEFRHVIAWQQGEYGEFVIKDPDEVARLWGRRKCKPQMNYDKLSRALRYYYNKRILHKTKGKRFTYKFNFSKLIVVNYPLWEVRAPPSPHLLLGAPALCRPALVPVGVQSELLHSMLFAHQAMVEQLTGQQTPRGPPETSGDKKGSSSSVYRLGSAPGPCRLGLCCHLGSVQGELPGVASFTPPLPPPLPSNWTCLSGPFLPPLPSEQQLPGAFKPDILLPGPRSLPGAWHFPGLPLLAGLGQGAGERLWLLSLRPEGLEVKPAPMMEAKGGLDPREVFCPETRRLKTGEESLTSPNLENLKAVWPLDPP
Sequence,binding signal (FLI1),binding signal (EHF),binding signal (SPIB),binding signal (ETV5),binding signal (ELF4),binding signal (ETV2),binding signal (ETV3L)
TCGAGA,0.561,0.608,0.652,0.635,0.67,0.644,0.586
AGTTAT,0.967,0.911,0.882,0.951,0.826,0.886,0.853
GTTGAA,0.863,0.944,0.828,0.793,0.891,0.909,0.925
GCGCAC,0.907,0.938,0.877,0.885,0.889,0.985,1.03
TACGGG,0.92,0.896,0.905,0.912,0.869,0.79,0.887
GTAAGC,1.02,0.965,0.894,0.839,0.847,0.922,0.908
CACTGA,0.929,0.871,0.886,0.885,0.958,0.96,0.936
GAGCTC,0.952,0.994,0.913,0.944,1.02,0.895,0.903
AAGGGA,0.896,0.927,0.878,0.887,0.866,0.836,0.845
GATTAG,0.881,0.875,0.771,0.86,0.919,0.875,0.964
ACCAAG,0.907,0.906,0.834,0.91,0.973,0.939,0.931
GAAGAT,0.883,0.918,0.898,0.931,0.916,0.966,0.898
GGTCCA,0.948,0.964,0.859,0.902,0.948,0.874,0.893
TAAGGC,0.962,0.871,0.962,0.93,0.937,0.967,0.959
GATAGT,0.813,0.763,0.806,0.839,0.811,0.868,0.849
TTAGTG,0.847,0.861,0.881,0.837,0.858,0.861,0.772
CAGAAA,0.956,0.963,0.967,0.937,0.941,0.993,0.888
TGTAGA,0.958,0.93,0.907,0.93,0.977,0.96,0.911
ATTAGA,0.934,0.898,0.86,0.847,0.917,0.986,0.863
CAGATA,0.914,0.876,0.999,0.907,0.905,0.974,0.959
AGGCTT,0.988,0.975,0.933,0.991,0.963,0.935,0.969
AGAAGA,0.907,0.889,0.971,0.895,0.974,0.945,0.903

# Whole records from above.
# CAGATA is listed as binding signal (FLI1): 0.914; binding signal (EHF): 0.876; binding signal (SPIB): 0.999; binding signal (ETV5): 0.907; binding signal (ELF4): 0.905; binding signal (ETV2): 0.974; binding signal (ETV3L): 0.959
# ATTAGA is listed as binding signal (FLI1): 0.934; binding signal (EHF): 0.898; binding signal (SPIB): 0.86; binding signal (ETV5): 0.847; binding signal (ELF4): 0.917; binding signal (ETV2): 0.986; binding signal (ETV3L): 0.863

# Going on with the list.

Sequence,binding signal (FLI1),binding signal (EHF),binding signal (SPIB),binding signal (ETV5),binding signal (ELF4),binding signal (ETV2),binding signal (ETV3L)
GAAGGT,0.806,0.881,0.924,0.889,0.816,0.775,0.848
ATCAGA,0.989,0.971,0.915,0.97,0.963,0.965,0.954
GACTCG,0.93,0.91,0.871,0.886,0.93,0.931,0.834
CCCAGA,0.861,0.808,0.781,0.874,0.929,0.893,0.88
GTGGTT,0.897,0.851,0.959,0.918,0.849,0.833,0.906
TGGCGC,0.994,0.922,0.928,0.853,0.944,0.743,0.999
CAGATC,0.92,0.958,0.888,0.863,0.99,1.02,0.913
TCGCGA,0.881,0.839,0.83,0.826,0.896,0.903,0.829
AGCAGA,0.871,0.963,0.901,0.934,0.925,0.971,0.91
CGGATT,0.965,0.859,0.963,0.952,0.898,0.828,0.959
CCCTAG,0.951,0.899,1.05,0.909,0.963,0.849,0.935
GTGGAT,0.829,0.921,0.937,0.961,0.92,0.872,0.993
AGAACT,0.915,0.919,0.942,0.88,0.942,0.812,0.94
CTAGTG,0.844,0.936,0.92,0.855,0.865,0.807,0.885
CCAGAT,0.925,0.876,0.977,0.872,0.919,0.822,0.928
TGCGTC,0.985,0.973,0.992,0.898,0.936,1.04,0.949
ATGGGA,0.904,0.964,0.879,0.918,0.874,0.836,0.885
GTCAAA,0.92,0.891,0.922,0.922,0.951,0.948,0.922
AAACAG,0.957,0.959,0.966,1.07,0.981,0.962,0.953
GACATG,0.972,0.969,0.937,0.842,0.951,0.911,0.979
GACTTG,0.926,0.816,0.904,0.79,0.87,0.91,0.793
GAGAAA,0.721,0.717,0.733,0.758,0.745,0.685,0.72
